These are yes or no findings as the source states them, for the method shown. Where a sequence is shown, tags or fusion partners need not be part of it.
Target: EF-Tu receptor (EFR) (UniProt C0LGT6)
Test: retained luminescence of an acridinium-labelled peptide on plant tissue

Sequences of proteins named here, by UniProt entry; tags and fusion partners are left off. Residues count along the entry.
UniProt C0LGT6, residues 25-1031: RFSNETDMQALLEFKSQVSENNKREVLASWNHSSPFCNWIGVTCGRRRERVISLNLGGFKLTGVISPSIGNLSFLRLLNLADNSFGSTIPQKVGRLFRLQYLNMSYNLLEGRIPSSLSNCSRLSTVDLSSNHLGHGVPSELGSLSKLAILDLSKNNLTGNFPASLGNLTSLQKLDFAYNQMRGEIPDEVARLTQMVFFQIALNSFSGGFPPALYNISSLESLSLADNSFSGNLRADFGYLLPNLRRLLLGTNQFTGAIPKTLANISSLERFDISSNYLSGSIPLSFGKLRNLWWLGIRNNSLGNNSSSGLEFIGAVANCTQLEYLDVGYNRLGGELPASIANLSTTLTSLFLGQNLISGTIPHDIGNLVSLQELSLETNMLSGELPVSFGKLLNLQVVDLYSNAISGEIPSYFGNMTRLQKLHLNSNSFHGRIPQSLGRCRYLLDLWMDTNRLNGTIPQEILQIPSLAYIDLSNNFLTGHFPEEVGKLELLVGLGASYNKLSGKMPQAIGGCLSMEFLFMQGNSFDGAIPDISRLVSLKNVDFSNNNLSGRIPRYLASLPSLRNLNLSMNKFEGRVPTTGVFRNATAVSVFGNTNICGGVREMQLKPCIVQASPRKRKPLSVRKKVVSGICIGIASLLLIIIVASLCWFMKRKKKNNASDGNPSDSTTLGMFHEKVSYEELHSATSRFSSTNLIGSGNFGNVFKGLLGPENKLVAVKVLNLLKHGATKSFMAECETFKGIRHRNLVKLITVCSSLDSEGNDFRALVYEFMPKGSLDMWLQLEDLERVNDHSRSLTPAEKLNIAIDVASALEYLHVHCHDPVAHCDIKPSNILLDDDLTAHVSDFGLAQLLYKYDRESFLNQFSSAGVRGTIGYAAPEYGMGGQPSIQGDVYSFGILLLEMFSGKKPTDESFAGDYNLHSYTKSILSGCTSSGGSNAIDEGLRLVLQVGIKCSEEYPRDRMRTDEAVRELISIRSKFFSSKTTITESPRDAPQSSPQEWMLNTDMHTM

binding: no binding
Binder: ICDINGVCVDA (acridinium on the N-terminus) [acridinium-Vu-In (N-terminal acridinium-tagged Vu-In conjugate)]

Reference: article doi:10.1101/679803
